This passage reports binding results from PMC2164959.

By UniProt entry, the sequences of proteins in these tests, tags left out. Residues count along the entry.
UniProt P27824, residues 21-592: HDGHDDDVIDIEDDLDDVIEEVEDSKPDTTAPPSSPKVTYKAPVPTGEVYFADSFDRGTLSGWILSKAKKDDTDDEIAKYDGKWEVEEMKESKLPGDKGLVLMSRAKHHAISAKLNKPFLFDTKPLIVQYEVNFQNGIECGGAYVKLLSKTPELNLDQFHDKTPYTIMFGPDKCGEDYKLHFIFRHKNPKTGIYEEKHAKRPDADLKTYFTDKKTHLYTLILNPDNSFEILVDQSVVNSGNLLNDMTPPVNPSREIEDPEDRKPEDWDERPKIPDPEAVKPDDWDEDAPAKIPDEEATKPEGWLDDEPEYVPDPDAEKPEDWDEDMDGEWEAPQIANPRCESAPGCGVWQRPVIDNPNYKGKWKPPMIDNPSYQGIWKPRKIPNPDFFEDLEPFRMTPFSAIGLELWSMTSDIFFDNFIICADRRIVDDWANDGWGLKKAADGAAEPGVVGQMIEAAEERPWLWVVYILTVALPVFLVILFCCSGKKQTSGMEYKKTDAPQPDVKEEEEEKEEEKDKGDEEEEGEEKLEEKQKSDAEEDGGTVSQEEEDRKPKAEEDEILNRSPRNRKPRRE

Results are given in words; binding and its absence hold for the method and conditions named. In cells and extracts the contact can be indirect. Binding calls can cover weak binding; strength is not graded here.

This test deals with GFP-tagged HPV16 E5 mutant M1 (pEGFP-M1) (human papillomavirus type 16) (UniProt P06927). Put plainly: co-IP; HEK-293T transfected, lysed 20-24 h after transfection in CHAPS buffer (0.2 M NaCl, 50 mM HEPES pH 7.5, 2% CHAPS); immunoprecipitation by the tag of E5 (anti-AU1, anti-HA or anti-GFP), protein G-sepharose, blot with anti-calnexin.

As to calnexin (from UniProt P27824 21-592), the binding result is listed as “binds”.
